US20090111753A1, “Nogo-A Polypeptide Fragments, Variant Nogo Receptor-1 Polypeptides, and Uses Thereof” (Yale University, priority 2004, published 2009)
Changes are numbered by the printed parent chain. In names and notes the source's numbering stands. Results are given in words; binding and its absence hold for the method and conditions named. Some binding calls cover weakened binding; strength is not graded here.

Protein sequences, listed by entry. Tags and fused reporters are not part of them. Lines headed by an entry give the natural chain unless they say otherwise; changes in a name come on top.
UniProt Q9BZR6: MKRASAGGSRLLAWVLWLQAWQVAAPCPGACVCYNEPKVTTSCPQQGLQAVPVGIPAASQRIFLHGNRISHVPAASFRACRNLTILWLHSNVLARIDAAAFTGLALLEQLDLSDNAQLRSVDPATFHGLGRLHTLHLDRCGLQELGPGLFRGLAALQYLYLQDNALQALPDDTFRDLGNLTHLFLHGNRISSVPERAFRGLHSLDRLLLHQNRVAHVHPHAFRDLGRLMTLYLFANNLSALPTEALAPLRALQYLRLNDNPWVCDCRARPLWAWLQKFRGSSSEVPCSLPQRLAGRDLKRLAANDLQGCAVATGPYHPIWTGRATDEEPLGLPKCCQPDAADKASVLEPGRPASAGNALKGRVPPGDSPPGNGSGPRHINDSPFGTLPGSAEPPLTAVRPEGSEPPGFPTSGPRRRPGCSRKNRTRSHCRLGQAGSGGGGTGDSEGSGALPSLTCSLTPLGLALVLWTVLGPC

Experiments:
Assay in all cases: AP-ligand binding, COS-7
[1] = target: T1, human NgR1 alanine mutant 36, 38 (human) (UniProt Q9BZR6)
T1 sequence: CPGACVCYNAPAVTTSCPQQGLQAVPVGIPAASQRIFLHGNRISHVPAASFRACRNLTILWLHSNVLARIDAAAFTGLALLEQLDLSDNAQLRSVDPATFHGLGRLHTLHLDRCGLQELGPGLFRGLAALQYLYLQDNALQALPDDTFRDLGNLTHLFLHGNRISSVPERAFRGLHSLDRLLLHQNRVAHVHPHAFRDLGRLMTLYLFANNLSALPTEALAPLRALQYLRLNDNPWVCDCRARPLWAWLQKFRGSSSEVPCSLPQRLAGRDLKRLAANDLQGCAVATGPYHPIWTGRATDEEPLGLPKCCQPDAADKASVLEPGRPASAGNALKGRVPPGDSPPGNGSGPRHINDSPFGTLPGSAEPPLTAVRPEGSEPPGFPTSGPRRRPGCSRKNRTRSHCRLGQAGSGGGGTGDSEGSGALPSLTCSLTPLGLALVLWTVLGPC

[2] = target: T2, human NgR1 alanine mutant 114, 117, 139 (human) (UniProt Q9BZR6)
T2 sequence: T1 sequence with A10E, A12K, D88A, Q91A, R113A

[3] = target: T3, human NgR1 alanine mutant 95, 97 (human) (UniProt Q9BZR6)
T3 sequence: T1 sequence with A10E, A12K, R69A, D71A

[4] = target: T4, human NgR1 alanine mutant 131 (human) (UniProt Q9BZR6)
T4 sequence: T1 sequence with A10E, A12K, R105A

[5] = target: T5, human NgR1 alanine mutant 210 (human) (UniProt Q9BZR6)
T5 sequence: T1 sequence with A10E, A12K, H184A

[6] = target: T6, human NgR1 alanine mutant 202, 205, 227 (human) (UniProt Q9BZR6)
T6 sequence: T1 sequence with A10E, A12K, H176A, D179A, R201A

Measured: binding

B1: AP-Nogo-66 (ligand, UniProt Q9NQC3 1055-1120, looked up)
chain: RIYKGVIQAIQKSDEGHPFRAYLESEVAISEELVQKYSNSALGHVNCTIKELRRLFLVDDLVDSLK
notes: domain: Nogo-66; construct described elsewhere (Fournier 2001); also called AP-Ng66; Ng66; not shown: alkaline phosphatase (AP); construct described elsewhere
binds: all assays above

B2: AP-fused Amino-Nogo fragment B4C (a.a. 950-1018) (ligand)
chain: LLPPDVSALATQAEIESIVKPKVLVKEAEKKLPSDTEKEDRSPSAIFSAELSKTSVVDLLYWRDIKKTG
notes: also called AmNg B4C; AP-B4C; not shown: alkaline phosphatase (AP), vector pcAP6
binds: all assays above
